For four molecules, binding results are on record in doi:10.1101/2021.09.14.460283.

By UniProt entry, the sequences of proteins in these tests, tags left out.
UniProt Q15311: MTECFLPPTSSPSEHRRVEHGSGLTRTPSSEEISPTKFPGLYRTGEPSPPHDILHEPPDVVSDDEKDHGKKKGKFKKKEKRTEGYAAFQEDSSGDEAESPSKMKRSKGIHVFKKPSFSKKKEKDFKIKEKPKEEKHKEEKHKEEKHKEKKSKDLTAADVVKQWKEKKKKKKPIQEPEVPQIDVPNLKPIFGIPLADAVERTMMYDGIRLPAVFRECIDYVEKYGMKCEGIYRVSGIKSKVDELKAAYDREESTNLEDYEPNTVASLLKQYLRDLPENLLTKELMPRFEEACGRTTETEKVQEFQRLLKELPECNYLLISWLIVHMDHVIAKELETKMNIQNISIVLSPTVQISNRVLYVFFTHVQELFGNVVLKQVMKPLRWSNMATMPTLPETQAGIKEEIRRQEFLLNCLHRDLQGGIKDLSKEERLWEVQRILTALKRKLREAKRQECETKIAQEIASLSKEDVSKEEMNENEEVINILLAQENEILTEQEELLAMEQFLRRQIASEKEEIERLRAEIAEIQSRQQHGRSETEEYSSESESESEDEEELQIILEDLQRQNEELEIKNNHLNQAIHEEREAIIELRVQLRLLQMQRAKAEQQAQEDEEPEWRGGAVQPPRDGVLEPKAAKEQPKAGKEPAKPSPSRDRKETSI
UniProt Q2M2I8: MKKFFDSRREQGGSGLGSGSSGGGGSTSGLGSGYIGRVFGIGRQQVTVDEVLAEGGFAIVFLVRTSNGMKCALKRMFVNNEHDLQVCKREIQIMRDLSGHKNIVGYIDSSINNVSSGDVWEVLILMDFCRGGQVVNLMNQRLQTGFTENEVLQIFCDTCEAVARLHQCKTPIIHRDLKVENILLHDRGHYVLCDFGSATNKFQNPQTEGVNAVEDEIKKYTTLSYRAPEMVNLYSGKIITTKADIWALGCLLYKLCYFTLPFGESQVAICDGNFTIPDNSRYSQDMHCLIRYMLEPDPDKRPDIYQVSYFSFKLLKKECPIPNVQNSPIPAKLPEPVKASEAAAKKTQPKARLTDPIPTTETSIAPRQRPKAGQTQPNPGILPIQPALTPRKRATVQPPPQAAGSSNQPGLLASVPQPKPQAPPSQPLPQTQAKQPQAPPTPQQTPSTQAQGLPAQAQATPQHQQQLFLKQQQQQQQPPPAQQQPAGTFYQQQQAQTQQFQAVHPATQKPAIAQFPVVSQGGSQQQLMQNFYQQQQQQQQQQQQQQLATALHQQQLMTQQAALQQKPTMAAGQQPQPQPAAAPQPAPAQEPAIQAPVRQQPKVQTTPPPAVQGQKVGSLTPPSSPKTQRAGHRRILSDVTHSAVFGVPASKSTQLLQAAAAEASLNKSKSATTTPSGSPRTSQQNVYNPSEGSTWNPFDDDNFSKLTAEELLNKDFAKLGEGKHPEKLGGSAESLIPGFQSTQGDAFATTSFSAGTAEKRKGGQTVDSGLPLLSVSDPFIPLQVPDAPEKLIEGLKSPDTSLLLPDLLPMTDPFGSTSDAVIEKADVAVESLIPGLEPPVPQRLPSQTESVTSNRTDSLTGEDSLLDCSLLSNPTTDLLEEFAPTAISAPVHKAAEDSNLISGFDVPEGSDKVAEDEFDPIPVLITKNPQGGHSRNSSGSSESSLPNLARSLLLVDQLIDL

What all share (experiment): co-IP
The target in test [1] is RALBP1 (human (endogenous in FOCUS)) (UniProt Q15311).
Test [2] addresses T1, REPS1 (human (endogenous in FOCUS)) (UniProt Q96D71).
T1 sequence: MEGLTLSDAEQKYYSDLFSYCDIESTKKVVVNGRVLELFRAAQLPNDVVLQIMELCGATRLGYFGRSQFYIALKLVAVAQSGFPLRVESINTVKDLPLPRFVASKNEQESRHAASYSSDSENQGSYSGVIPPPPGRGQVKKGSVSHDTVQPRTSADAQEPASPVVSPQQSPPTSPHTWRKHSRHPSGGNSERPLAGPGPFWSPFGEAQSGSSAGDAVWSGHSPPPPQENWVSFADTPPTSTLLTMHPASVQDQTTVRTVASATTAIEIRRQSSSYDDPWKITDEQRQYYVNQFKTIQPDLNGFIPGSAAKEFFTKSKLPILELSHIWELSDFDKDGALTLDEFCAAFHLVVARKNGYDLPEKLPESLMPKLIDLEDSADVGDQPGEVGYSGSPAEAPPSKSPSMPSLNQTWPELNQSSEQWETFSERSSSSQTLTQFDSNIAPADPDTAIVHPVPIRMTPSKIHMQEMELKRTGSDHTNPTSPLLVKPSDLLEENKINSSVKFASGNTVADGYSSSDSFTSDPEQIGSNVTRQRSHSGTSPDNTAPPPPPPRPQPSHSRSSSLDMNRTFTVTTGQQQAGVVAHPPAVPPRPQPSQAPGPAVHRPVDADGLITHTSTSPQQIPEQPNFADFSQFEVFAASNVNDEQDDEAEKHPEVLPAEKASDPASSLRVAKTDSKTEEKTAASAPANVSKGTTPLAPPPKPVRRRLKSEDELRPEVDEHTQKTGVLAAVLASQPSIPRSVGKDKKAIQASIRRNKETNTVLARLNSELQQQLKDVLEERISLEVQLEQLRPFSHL

The target in test [3] is adapter-associated kinase 1 (AAK1) (human (endogenous in FOCUS)) (UniProt Q2M2I8).

Results are given in words; binding and its absence hold for the method and conditions named. Binding seen in cells or lysates may run through a third protein. Some entries that bind do so weakly or less than the wild type.

In the case of “adapter-associated kinase 1 (AAK1) (from UniProt Q2M2I8 1-961) (enzyme)”, the binding result in test [1] and in test [2] was “binds” in each case.
Turning to RALBP1 (from UniProt Q15311 1-655), the binding entry in test [3] and in test [2] was “binds” throughout.

B1: REPS2 (protein, UniProt Q8NFH8 1-660)
chain: MEAAAAAAAAAAAAAAAGGGCGSGPPPLLLSEGEQQCYSELFARCAGAAGGGPGSGPPEAARVAPGTATAAAGPVADLFRASQLPAETLHQITELCGAKRVGYFGPTQFYIALKLIAAAQSGLPVRIESIKCELPLPRFMMSKNDGEIRFGNPAELHGTKVQIPYLTTEKNSFKRMDDEDKQQETQSPTMSPLASPPSSPPHYQRVPLSHGYSKLRSSAEQMHPAPYEARQPLVQPEGSSSGGPGTKPLRHQASLIRSFSVERELQDNSSYPDEPWRITEEQREYYVNQFRSLQPDPSSFISGSVAKNFFTKSKLSIPELSYIWELSDADCDGALTLPEFCAAFHLIVARKNGYPLPEGLPPTLQPEYLQAAFPKPKWDCQLFDSYSESLPANQQPRDLNRMEKTSVKDMADLPVPNQDVTSDDKQALKSTINEALPKDVSEDPATPKDSNSLKARPRSRSYSSTSIEEAMKRGEDPPTPPPRPQKTHSRASSLDLNKVFQPSVPATKSGLLPPPPALPPRPCPSQSEQVSEAELLPQLSRAPSQAAESSPAKKDVLYSQPPSKPIRRKFRPENQATENQEPSTAASGPASAATMKPHPTVQKQSSKQKKAIQTAIRKNKEANAVLARLNSELQQQLKEVHQERIALENQLEQLRPVTVL
B1: the binding result in test [3], in test [1] and in test [2] was “binds” throughout.

B2: REPS1 (protein, UniProt Q96D71 1-796)
chain: MEGLTLSDAEQKYYSDLFSYCDIESTKKVVVNGRVLELFRAAQLPNDVVLQIMELCGATRLGYFGRSQFYIALKLVAVAQSGFPLRVESINTVKDLPLPRFVASKNEQESRHAASYSSDSENQGSYSGVIPPPPGRGQVKKGSVSHDTVQPRTSADAQEPASPVVSPQQSPPTSPHTWRKHSRHPSGGNSERPLAGPGPFWSPFGEAQSGSSAGDAVWSGHSPPPPQENWVSFADTPPTSTLLTMHPASVQDQTTVRTVASATTAIEIRRQSSSYDDPWKITDEQRQYYVNQFKTIQPDLNGFIPGSAAKEFFTKSKLPILELSHIWELSDFDKDGALTLDEFCAAFHLVVARKNGYDLPEKLPESLMPKLIDLEDSADVGDQPGEVGYSGSPAEAPPSKSPSMPSLNQTWPELNQSSEQWETFSERSSSSQTLTQFDSNIAPADPDTAIVHPVPIRMTPSKIHMQEMELKRTGSDHTNPTSPLLVKPSDLLEENKINSSVKFASGNTVADGYSSSDSFTSDPEQIGSNVTRQRSHSGTSPDNTAPPPPPPRPQPSHSRSSSLDMNRTFTVTTGQQQAGVVAHPPAVPPRPQPSQAPGPAVHRPVDADGLITHTSTSPQQIPEQPNFADFSQFEVFAASNVNDEQDDEAEKHPEVLPAEKASDPASSLRVAKTDSKTEEKTAASAPANVSKGTTPLAPPPKPVRRRLKSEDELRPEVDEHTQKTGVLAAVLASQPSIPRSVGKDKKAIQASIRRNKETNTVLARLNSELQQQLKDVLEERISLEVQLEQLRPFSHL
With B2, the binding entry in test [3] and in test [1] was “binds” throughout.
